Values from PubChem BioAssay AID1259405 (NCATS, 2018)

Aim: 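Knock-downs that lift recombinant protein yield in hamster ovary cells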 (primary screen)
Cells: Chinese hamster CHO-K1 ovary cells with stable secreted eGFP expression
Reagents: single siRNA against mouse genes, 0.8 pmol siRNA per well (2 µl of 400 nM stock)
Duration: 3 days
Measurement: 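Percent of the per-plate non-targeting control median for intracellular GFP per well by laser scanning cytometry and for cell viability by ATP luminescence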
Scale: GFP, % of control: higher = more GFP per well, higher productivity; viability (ATP), % of control: higher = more viable cells (more ATP)
Rule for the call: 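a knock-down is called active if GFP reaches 120% or more of non-targeting control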
Shown is one part, drawn at random, of about 50,000 reagents tested. In the full data, about 4,000 (8%) got an active call. 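Mouse siRNA library applied to hamster cells; one well for each siRNA.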 The numbers tell different reagents against one gene apart. No sequences are given here.

The opening 5 records as a preview:
no.	gene symbol	reagent	GFP, % of control	viability (ATP), % of control	outcome
1	Ccdc181 (coiled-coil domain containing 181)	1	73	85.3	inactive
2	Ccdc181 (coiled-coil domain containing 181)	2	68.5	44.7	inactive
3	Ccdc181 (coiled-coil domain containing 181)	3	154	137	active
4	Cst11 (cystatin 11)	1	164	59.4	active
5	Cst11 (cystatin 11)	2	75.5	53.6	inactive

The list itself, repeating the preview:
no.	gene symbol	reagent	GFP, % of control	viability (ATP), % of control	outcome
1	Ccdc181 (coiled-coil domain containing 181)	1	73	85.3	inactive
2	Ccdc181 (coiled-coil domain containing 181)	2	68.5	44.7	inactive
3	Ccdc181 (coiled-coil domain containing 181)	3	154	137	active
4	Cst11 (cystatin 11)	1	164	59.4	active
5	Cst11 (cystatin 11)	2	75.5	53.6	inactive
6	Cst11 (cystatin 11)	3	59.3	99.5	inactive
7	Ankrd2 (ankyrin repeat domain 2)	1	74.9	61.3	inactive
8	Ankrd2 (ankyrin repeat domain 2)	2	58.8	63.3	inactive
9	Ankrd2 (ankyrin repeat domain 2)	3	136	100	active
10	B3gnt8	1	149	82.8	active
11	B3gnt8	2	64.8	81.4	inactive
12	B3gnt8	3	64.5	65.4	inactive
13	Vps37c (vacuolar protein sorting 37C)	1	95.5	77.3	inactive
14	Vps37c (vacuolar protein sorting 37C)	2	91.8	87.2	inactive
15	Vps37c (vacuolar protein sorting 37C)	3	149	108	active
16	Or4d10c (olfactory receptor family 4 subfamily D member 10C)	1	50	74.1	inactive
17	Or4d10c (olfactory receptor family 4 subfamily D member 10C)	2	103	94.2	inactive
18	Or4d10c (olfactory receptor family 4 subfamily D member 10C)	3	78.4	111	inactive
19	Rida (reactive intermediate imine deaminase A homolog)	1	52.9	64.9	inactive
20	Rida (reactive intermediate imine deaminase A homolog)	2	127	93.6	active
21	Rida (reactive intermediate imine deaminase A homolog)	3	144	111	active
22	Myh6 (myosin, heavy polypeptide 6, cardiac muscle, alpha)	1	148	121	active
23	Myh6 (myosin, heavy polypeptide 6, cardiac muscle, alpha)	2	80.8	116	inactive
24	Grk5 (G protein-coupled receptor kinase 5)	1	133	105	active
25	Nxnl1 (nucleoredoxin-like 1)	1	79.8	75.3	inactive
26	Nxnl1 (nucleoredoxin-like 1)	2	106	79.1	inactive
27	Nxnl1 (nucleoredoxin-like 1)	3	84.2	72.4	inactive
28	Ifi27l2b (interferon, alpha-inducible protein 27 like 2B)	1	86.3	50.6	inactive
29	Ifi27l2b (interferon, alpha-inducible protein 27 like 2B)	2	72.9	61	inactive
30	Ifi27l2b (interferon, alpha-inducible protein 27 like 2B)	3	69.5	78.7	inactive
31	Ctc1 (CTS telomere maintenance complex component 1)	1	54.6	69.6	inactive
32	Ctc1 (CTS telomere maintenance complex component 1)	2	84.3	68.6	inactive
33	Ctc1 (CTS telomere maintenance complex component 1)	3	113	141	inactive
34	Sstr2 (somatostatin receptor 2)	1	51.7	52	inactive
35	Sstr2 (somatostatin receptor 2)	2	70.9	74.7	inactive
36	Sstr2 (somatostatin receptor 2)	3	96.3	89.1	inactive
37	Kdm8 (lysine (K)-specific demethylase 8)	1	57.3	76.2	inactive
38	Kdm8 (lysine (K)-specific demethylase 8)	2	46.1	52.1	inactive
39	Kdm8 (lysine (K)-specific demethylase 8)	3	80	71.4	inactive
40	Copa (coatomer protein complex subunit alpha)	1	35.2	13.7	inactive
41	Copa (coatomer protein complex subunit alpha)	2	74.9	105	inactive
42	Copa (coatomer protein complex subunit alpha)	3	82.6	71.2	inactive
43	Pold2 (polymerase (DNA directed), delta 2, regulatory subunit)	1	104	90.7	inactive
44	Pold2 (polymerase (DNA directed), delta 2, regulatory subunit)	2	73.8	80.8	inactive
45	Rfx2 (regulatory factor X, 2 (influences HLA class II expression))	1	93	107	inactive
46	Rfx2 (regulatory factor X, 2 (influences HLA class II expression))	2	141	68.4	active
47	Rfx2 (regulatory factor X, 2 (influences HLA class II expression))	3	77.6	101	inactive
48	Pola1 (polymerase (DNA directed), alpha 1)	1	61.3	63.5	inactive
49	Pola1 (polymerase (DNA directed), alpha 1)	2	94.4	84.1	inactive
50	Pola1 (polymerase (DNA directed), alpha 1)	3	56.1	63	inactive
51	Podxl (podocalyxin-like)	1	41.5	44.3	inactive
52	Podxl (podocalyxin-like)	2	93	82.9	inactive
53	Podxl (podocalyxin-like)	3	65.9	64.9	inactive
54	Zfp819 (zinc finger protein 819)	1	69.2	51.5	inactive
55	Zfp819 (zinc finger protein 819)	2	96.8	65	inactive
56	Zfp819 (zinc finger protein 819)	3	100	95.9	inactive
57	Pomp (proteasome maturation protein)	1	64.8	57	inactive
58	Pomp (proteasome maturation protein)	2	14.6	7.62	inactive
59	Pomp (proteasome maturation protein)	3	9.82	3.98	inactive
60	Tat (tyrosine aminotransferase)	1	86.8	102	inactive
61	Tat (tyrosine aminotransferase)	2	88.3	75.1	inactive
62	Tat (tyrosine aminotransferase)	3	91.2	109	inactive
63	Arl6 (ADP-ribosylation factor-like 6)	1	116	70.3	inactive
64	Arl6 (ADP-ribosylation factor-like 6)	2	126	71.7	active
65	Arl6 (ADP-ribosylation factor-like 6)	3	80.8	72.4	inactive
66	Mrpl12 (mitochondrial ribosomal protein L12)	1	125	98.5	active
67	Mrpl12 (mitochondrial ribosomal protein L12)	2	106	79.4	inactive
68	Mrpl12 (mitochondrial ribosomal protein L12)	3	134	80.4	active
69	Mcub	1	85.1	80.6	inactive
70	Mcub	2	74.3	63	inactive
71	Mcub	3	91.9	114	inactive
72	Ankef1 (ankyrin repeat and EF-hand domain containing 1)	1	115	63.4	inactive
73	Ankef1 (ankyrin repeat and EF-hand domain containing 1)	2	99.1	94.1	inactive
74	Ankef1 (ankyrin repeat and EF-hand domain containing 1)	3	93.3	97	inactive
75	Or4k15c (olfactory receptor family 4 subfamily K member 15C)	1	157	107	active
76	Or4k15c (olfactory receptor family 4 subfamily K member 15C)	2	72.9	65	inactive
77	Or4k15c (olfactory receptor family 4 subfamily K member 15C)	3	94	144	inactive
78	A330008L17Rik (RIKEN cDNA A330008L17 gene)	1	77.2	75.8	inactive
79	A330008L17Rik (RIKEN cDNA A330008L17 gene)	2	79.7	48.7	inactive
80	A330008L17Rik (RIKEN cDNA A330008L17 gene)	3	76.9	78.9	inactive
81	Prss59 (serine protease 59)	1	76.3	31.5	inactive
82	Prss59 (serine protease 59)	2	42.3	32.4	inactive
83	Prss59 (serine protease 59)	3	70	85.7	inactive
84	Ncapd2 (non-SMC condensin I complex, subunit D2)	1	97.4	60.8	inactive
85	Ncapd2 (non-SMC condensin I complex, subunit D2)	2	81.9	60.2	inactive
86	Ncapd2 (non-SMC condensin I complex, subunit D2)	3	34.2	62.2	inactive
